Values joined by “and” are separate entries in the source; they are usually repeats but may differ in a detail not shown here. Identical values can stand only once. Like-named read-outs stand apart in the source and are kept apart here. The source gives many values for each of these; only a part stands here.
Tested on: ATCC strain 43300 Staphylococcus aureus
Settings: for survival (cfu/ml): triplicate platings
[1] = 30 μg/ml oxacillin + MSM (% in label), 96 hours, listed as 12% MSM
[2] = 30 μg/ml oxacillin + MSM (% in label), 96 hours, listed as 13% MSM
[3] = 30 μg/ml oxacillin + MSM (% in label), 96 hours, listed as 14% MSM
[4] = 30 μg/ml oxacillin + MSM (% in label), 96 hours, listed as 15% MSM
[5] = 30 μg/ml oxacillin + MSM (% in label), 120 hours, listed as 5% MSM
[6] = 30 μg/ml oxacillin + MSM (% in label), 120 hours, listed as 6% MSM
[7] = 30 μg/ml oxacillin + MSM (% in label), 120 hours, listed as 7% MSM
[8] = 30 μg/ml oxacillin + MSM (% in label), 120 hours, listed as 8% MSM
[9] = 30 μg/ml oxacillin + MSM (% in label), 120 hours, listed as 9% MSM
[10] = 30 μg/ml oxacillin + MSM (% in label), 120 hours, listed as 10% MSM
[11] = 30 μg/ml oxacillin + MSM (% in label), 120 hours, listed as 11% MSM
[12] = 30 μg/ml oxacillin + MSM (% in label), 120 hours, listed as 12% MSM
[13] = 30 μg/ml oxacillin + MSM (% in label), 120 hours, listed as 13% MSM
[14] = 30 μg/ml oxacillin + MSM (% in label), 120 hours, listed as 14% MSM
[15] = 30 μg/ml oxacillin + MSM (% in label), 120 hours, listed as 15% MSM
[16] = 30 μg/ml oxacillin + MSM (% in label), 120 hours, listed as 16% MSM

CS(C)(=O)=O [MSM, Methylsulfonylmethane]
survival, Average Log [1]: 3.7 Log
survival, Average Log [2]: 2.5 Log
survival, Average Log [3]: 1.7 Log
survival, Average Log [4]: 1.9 Log
survival, Average Log (30 μg/ml oxacillin + MSM (% in label), 96 hours, listed as 16% MSM): 1.3 Log
survival (cfu/ml) (30 μg/ml oxacillin + MSM (% in label), 96 hours, listed as 5% MSM): >3.3 × 10^5 cfu/ml
survival (cfu/ml) (30 μg/ml oxacillin + MSM (% in label), 96 hours, listed as 6% MSM): >3.3 × 10^5 cfu/ml
survival (cfu/ml) (30 μg/ml oxacillin + MSM (% in label), 96 hours, listed as 7% MSM): >3.3 × 10^5 cfu/ml
survival (cfu/ml) (30 μg/ml oxacillin + MSM (% in label), 96 hours, listed as 8% MSM): >3.3 × 10^5 cfu/ml
survival (cfu/ml) (30 μg/ml oxacillin + MSM (% in label), 96 hours, listed as 9% MSM): 1.0 × 10^4 cfu/ml and 1.02 × 10^4 cfu/ml and 1.01 × 10^4 cfu/ml
survival (cfu/ml) (30 μg/ml oxacillin + MSM (% in label), 96 hours, listed as 10% MSM): >3.3 × 10^5 cfu/ml
survival (cfu/ml) (30 μg/ml oxacillin + MSM (% in label), 96 hours, listed as 11% MSM): >3.3 × 10^5 cfu/ml
survival (cfu/ml) [1]: 6.9 × 10^3 cfu/ml and 3.9 × 10^3 cfu/ml
survival (cfu/ml) [2]: 3.3 × 10^2 cfu/ml and 3.1 × 10^2 cfu/ml and 3.2 × 10^2 cfu/ml
survival (cfu/ml) [3]: 5.0 × 10^1 cfu/ml and 6.0 × 10^1 cfu/ml
survival (cfu/ml) [4]: 8.0 × 10^1 cfu/ml
survival, Average Log [5]: 5.5 Log
survival, Average Log [6]: 5.5 Log
survival, Average Log [7]: 5.5 Log
survival, Average Log [8]: 5.5 Log
survival, Average Log [9]: 5.5 Log
survival, Average Log [10]: 5.5 Log
survival, Average Log [11]: 5.5 Log
survival, Average Log [12]: 4.7 Log
survival, Average Log [13]: 3.0 Log
survival, Average Log [14]: 1.3 Log
survival, Average Log [15]: 0 Log
survival, Average Log [16]: 1.3 Log
survival (cfu/ml) [5]: >3.3 × 10^5 cfu/ml
survival (cfu/ml) [6]: >3.3 × 10^5 cfu/ml
survival (cfu/ml) [7]: >3.3 × 10^5 cfu/ml
survival (cfu/ml) [8]: >3.3 × 10^5 cfu/ml
survival (cfu/ml) [9]: >3.3 × 10^5 cfu/ml
survival (cfu/ml) [10]: >3.3 × 10^5 cfu/ml
survival (cfu/ml) [11]: >3.3 × 10^5 cfu/ml
survival (cfu/ml) [12]: 6.8 × 10^4 cfu/ml and 3.9 × 10^4 cfu/ml and 6.9 × 10^4 cfu/ml
survival (cfu/ml) [13]: 1.02 × 10^3 cfu/ml and 1.01 × 10^3 cfu/ml
survival (cfu/ml) [14]: 3.0 × 10^1 cfu/ml and 2.0 × 10^1 cfu/ml
survival (cfu/ml) [15]: 0 cfu/ml
survival (cfu/ml) [16]: 2.0 × 10^1 cfu/ml and 3.0 × 10^1 cfu/ml
survival (cfu/ml) (60 μg/ml oxacillin + MSM (% in label), 24 hours, listed as 5% MSM): 3.5 × 10^2 cfu/ml and 3.3 × 10^2 cfu/ml and 3.6 × 10^2 cfu/ml
survival (cfu/ml) (60 μg/ml oxacillin + MSM (% in label), 24 hours, listed as 6% MSM): 2.4 × 10^2 cfu/ml
survival (cfu/ml) (60 μg/ml oxacillin + MSM (% in label), 24 hours, listed as 7% MSM): 2.1 × 10^2 cfu/ml and 2.3 × 10^2 cfu/ml
survival (cfu/ml) (60 μg/ml oxacillin + MSM (% in label), 24 hours, listed as 8% MSM): 4.6 × 10^2 cfu/ml and 5.0 × 10^2 cfu/ml
survival (cfu/ml) (60 μg/ml oxacillin + MSM (% in label), 24 hours, listed as 9% MSM): 3.2 × 10^2 cfu/ml
survival (cfu/ml) (60 μg/ml oxacillin + MSM (% in label), 24 hours, listed as 10% MSM): 4.2 × 10^2 cfu/ml and 4.4 × 10^2 cfu/ml
survival (cfu/ml) (60 μg/ml oxacillin + MSM (% in label), 24 hours, listed as 11% MSM): 6.7 × 10^2 cfu/ml and 6.9 × 10^2 cfu/ml
survival (cfu/ml) (60 μg/ml oxacillin + MSM (% in label), 24 hours, listed as 12% MSM): 7.3 × 10^2 cfu/ml and 7.1 × 10^2 cfu/ml and 7.5 × 10^2 cfu/ml
survival (cfu/ml) (60 μg/ml oxacillin + MSM (% in label), 24 hours, listed as 13% MSM): 6.3 × 10^2 cfu/ml and 6.0 × 10^2 cfu/ml
survival (cfu/ml) (60 μg/ml oxacillin + MSM (% in label), 24 hours, listed as 14% MSM): 1.8 × 10^2 cfu/ml and 1.7 × 10^2 cfu/ml
survival (cfu/ml) (60 μg/ml oxacillin + MSM (% in label), 24 hours, listed as 15% MSM): 6.6 × 10^3 cfu/ml and 6.2 × 10^3 cfu/ml and 6.4 × 10^3 cfu/ml
survival (cfu/ml) (60 μg/ml oxacillin + MSM (% in label), 24 hours, listed as 16% MSM): 6.9 × 10^3 cfu/ml
survival (cfu/ml) (60 μg/ml oxacillin + MSM (% in label), 48 hours, listed as 5% MSM): 3.0 × 10^3 cfu/ml and 2.7 × 10^3 cfu/ml and 3.3 × 10^3 cfu/ml
survival (cfu/ml) (60 μg/ml oxacillin + MSM (% in label), 48 hours, listed as 6% MSM): 6.0 × 10^1 cfu/ml and 5.0 × 10^1 cfu/ml
survival (cfu/ml) (60 μg/ml oxacillin + MSM (% in label), 48 hours, listed as 7% MSM): 1.0 × 10^4 cfu/ml and 1.1 × 10^4 cfu/ml
survival (cfu/ml) (60 μg/ml oxacillin + MSM (% in label), 48 hours, listed as 8% MSM): 7.5 × 10^2 cfu/ml and 7.3 × 10^2 cfu/ml and 7.0 × 10^2 cfu/ml
survival (cfu/ml) (60 μg/ml oxacillin + MSM (% in label), 48 hours, listed as 9% MSM): 1.8 × 10^2 cfu/ml and 1.7 × 10^2 cfu/ml and 1.5 × 10^2 cfu/ml
survival (cfu/ml) (60 μg/ml oxacillin + MSM (% in label), 48 hours, listed as 10% MSM): 1.6 × 10^2 cfu/ml and 1.4 × 10^2 cfu/ml
survival (cfu/ml) (60 μg/ml oxacillin + MSM (% in label), 48 hours, listed as 11% MSM): 1.3 × 10^2 cfu/ml and 1.7 × 10^2 cfu/ml and 1.2 × 10^2 cfu/ml
survival (cfu/ml) (60 μg/ml oxacillin + MSM (% in label), 48 hours, listed as 12% MSM): 1.1 × 10^2 cfu/ml and 1.0 × 10^2 cfu/ml
survival (cfu/ml) (60 μg/ml oxacillin + MSM (% in label), 48 hours, listed as 13% MSM): 6.0 × 10^1 cfu/ml and 4.0 × 10^1 cfu/ml and 5.0 × 10^1 cfu/ml
survival (cfu/ml) (60 μg/ml oxacillin + MSM (% in label), 48 hours, listed as 14% MSM): 1.5 × 10^2 cfu/ml and 1.7 × 10^2 cfu/ml and 1.2 × 10^2 cfu/ml
survival (cfu/ml) (60 μg/ml oxacillin + MSM (% in label), 48 hours, listed as 15% MSM): 1.2 × 10^2 cfu/ml and 1.3 × 10^2 cfu/ml
